Measured values published in PubChem BioAssay AID488837 (National Center for Advancing Translational Sciences (NCATS), 2010).
Hit rate of the full screen: of about 330,000 compounds, about 20 (0.006%) were called active. These results got no clear call from the source, so the numbers are uncertain. Calls come from the whole dose curve; as a rule, active = well fitted inhibition curve with a large enough effect; inconclusive = small, poorly fitted or top-dose-only effect, or effect the other way; inactive = flat fitted curve, though single readings scatter. Some of these compounds have results that are not shown, active ones among them.

Sequences of proteins named here, by UniProt entry; tags and fusion partners are left off.
UniProt O00167, whole entry: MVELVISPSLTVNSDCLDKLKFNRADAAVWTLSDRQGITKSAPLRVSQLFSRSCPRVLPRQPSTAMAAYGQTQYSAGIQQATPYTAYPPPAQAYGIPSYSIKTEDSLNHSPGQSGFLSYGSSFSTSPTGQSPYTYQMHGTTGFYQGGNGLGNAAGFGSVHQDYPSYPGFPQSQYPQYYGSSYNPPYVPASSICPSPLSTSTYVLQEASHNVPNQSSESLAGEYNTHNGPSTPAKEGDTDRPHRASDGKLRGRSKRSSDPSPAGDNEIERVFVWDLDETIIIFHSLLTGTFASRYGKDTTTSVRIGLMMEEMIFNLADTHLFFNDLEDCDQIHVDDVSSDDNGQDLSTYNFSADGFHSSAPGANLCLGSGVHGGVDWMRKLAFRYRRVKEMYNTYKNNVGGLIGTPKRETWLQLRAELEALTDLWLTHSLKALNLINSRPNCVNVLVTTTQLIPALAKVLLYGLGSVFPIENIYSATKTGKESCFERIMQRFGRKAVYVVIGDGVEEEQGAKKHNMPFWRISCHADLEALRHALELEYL

Each molecule was assayed against Protein phosphatase EYA2 (Homo sapiens) (UniProt O00167) (assay: qHTS Assay for Inhibitors of the Phosphatase Activity of Eya2). Settings: recombinant Eya2, OMFP fluorescence dephosphorylation (OMFP is methylfluorescein phosphate).
From the text: The Eya family of proteins are essential co-activators of the Six1 transcription factor. Six1 is a developmental gene that is abnormally re-expressed in a large percentage of breast cancers. This over-expression plays a causal role in the initiation and metastatic development of breast cancers. The Eya family of proteins was also found to contain a unique HAD phosphatase domain with protein tyrosine phosphatase activity which can potentially play a role in Six1-mediated breast tumorigenesis. […] We have developed and optimized a 1536 well fluorescence-based HTS assay targeting the phosphatase activity of Eya2. Inhibitors found against Eya2 could serve as potential therapeutic tools to inhibit Six1-mediated breast tumorigenesis and to increase the efficiency of radiation and certain chemo therapy. These inhibitors could also be used as chemical probes to study the function of Eya2's phosphatase activity and its role in Six1-mediated breast tumorigenesis.
The Eya2 enzyme was kindly provided by the laboratory of Dr. Rui Zhao. The 3-O-methyl-fluorescein phosphate (OMFP) substrate and all buffer reagents were purchased from Sigma Aldrich. qHTS Assay Setup: 1. Buffer- 50 mM HEPES pH 7.5, 50 mM NaCl, 5 uM MgCl2, 0.05% BSA, 1 mM DTT. 2. OMFP Stock- 10 mM solution prepared in 100% DMSO and stored in single use aliquots at -20C. […] Read on ViewLux using Excitation = 485 nm, Emission = 525 nm
Potency is the fitted concentration of half-maximal effect.

| SMILES | Potency |
| --- | --- |
| COc1cc(C(=O)NCC2(N(C)C)CCCCC2)c([N+](=O)[O-])cc1OC | inconclusive: 126 µM |
